The list is a part of this screen's results and no random one: it is rich in T/C values a quarter to a half above the control, in often repeated tests (any T/C) and in doses without a T/C. Other doses and runs of a compound stand elsewhere. T/C gives the treated animals as a percentage of the vehicle group. Some doses have a count of surviving animals in place of a T/C: the source holds a T/C of zero for them, seemingly a mark for toxic or unscored doses. Some doses without a T/C left all or most animals alive at the check, yet need not have been tolerated: the source hardly ever lists a survival T/C far under the control, and the zero likely stands for such cases as well. Counts of survivors are from the toxicity check (mostly the fifth day) where no day follows; animals may have died later. Schedule codes are those of the source, taken here to give the interval after Q, in days (D) or hours (H), and the number of doses after X. Some doses were run more than once; the results are listed from low to high. For survival time, the PubChem record calls one and a half times the control and up active, and a quarter to a half above the control has no call in these data; cut-offs in other NCI protocols can differ. Some T/C values are followed by the survivors on the day toxicity was checked, most often the fifth; without a count, all were alive then.
Test system: BDF1 mice, B16 melanoma ip, median survival T/C
Assay: NCI In Vivo Anticancer Drug Screen. Data for tumor model B16 Melanoma (intraperitoneal) in B6D2F1 (BDF1) mice
Conditions: T/C endpoint: median survival time, higher T/C = longer survival
Method in brief: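 Vehicle-treated animals serve as the reference (C); treated animals (T) are scored for survival or tumor size after tumor transplantation.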

[1] = dose: 100.0 mg/kg/injection, schedule: Q01DX009 (ip), vehicle: saline
[2] = dose: 200.0 mg/kg/injection, schedule: Q01DX009 (ip), vehicle: saline
[3] = dose: 400.0 mg/kg/injection, schedule: Q01DX009 (ip), vehicle: saline
[4] = dose: 12.5 mg/kg/injection, schedule: Q01DX009 (ip), vehicle: saline with Tween-80
[5] = dose: 25.0 mg/kg/injection, schedule: Q01DX009 (ip), vehicle: saline with Tween-80
[6] = dose: 200.0 mg/kg/injection, schedule: Q01DX009 (ip), vehicle: Klucel (hydroxypropylcellulose) (HPC)
[7] = dose: 400.0 mg/kg/injection, schedule: Q01DX009 (ip), vehicle: Klucel (hydroxypropylcellulose) (HPC)
[8] = dose: 50.0 mg/kg/injection, schedule: Q01DX009 (ip), vehicle: Klucel (hydroxypropylcellulose) (HPC)
[9] = dose: 50.0 mg/kg/injection, schedule: Q04DX003 (ip), vehicle: Klucel (hydroxypropylcellulose) (HPC)
[10] = dose: 100.0 mg/kg/injection, schedule: Q01DX009 (ip), vehicle: Klucel (hydroxypropylcellulose) (HPC)
[11] = dose: 80.0 mg/kg/injection, schedule: Q01DX009 (ip), vehicle: Klucel (hydroxypropylcellulose) (HPC)
[12] = dose: 100.0 mg/kg/injection, schedule: Q01DX009 (ip), vehicle: saline with Tween-80
[13] = dose: 200.0 mg/kg/injection, schedule: Q01DX009 (ip), vehicle: saline with Tween-80
[14] = dose: 400.0 mg/kg/injection, schedule: Q01DX009 (ip), vehicle: saline with Tween-80
[15] = dose: 25.0 mg/kg/injection, schedule: Q01DX009 (ip), vehicle: Klucel (hydroxypropylcellulose) (HPC)
[16] = dose: 6.25 mg/kg/injection, schedule: Q01DX009 (ip), vehicle: saline with Tween-80

With `COC1C=COC2(C)Oc3c(C)c(O)c4c(c3C2=O)/C(=N/C2CCC(O)OC2C)C=C(NC(=O)/C(C)=C\C(=O)C2CC2C(O)C(C)C(O)C(C)C(OC(C)=O)C1C)C4=O` (stereo unspecified) the survivor count (dose: 9.25 mg/kg/injection, schedule: Q01DX009 (ip), vehicle: saline with Tween-80) was 8 of 8, the survivor count (dose: 37.0 mg/kg/injection, schedule: Q01DX009 (ip), vehicle: saline with Tween-80) was 10 of 10 and the survivor count (dose: 75.0 mg/kg/injection, schedule: Q01DX009 (ip), vehicle: saline with Tween-80) was 10 of 10.
With `O=C(O)CC(NC(=O)OCc1ccccc1)C(=O)O` (stereo unspecified) the survivor count [1] was 6 of 10, the survivor count [2] was 9 of 10 and the survivor count [3] was 9 of 10.
With `Cc1nc2c(O)ccc(O)c2nc1C` the survivor count [4] was 10 of 10 and the survivor count [5] was 10 of 10.
With `COc1cc(O)c2c(c1)C(=O)c1cc3c(c(O)c1C2=O)C(OC1OC(C)C(O)C(O)C1OC)C(OC)C(C)(O)C3=O` (stereo unspecified) the survivor count [6] was 7 of 10.
In the case of `Cc1cc2nc3ccc(=[N+](C)C)cc-3sc2cc1N`, the T/C (dose: 6.25 mg/kg/injection, schedule: Q01DX009 (ip), vehicle: saline) is reported as 125 % of control, the survivor count [1] is reported as 4 of 10 and the survivor count [2] is reported as 0 of 10. The survivor count [3] was 0 of 10.
With `Cc1cc(C)[c]([Hg][Cl])c(C)c1` the survivor count [4] was 8 of 10 and the survivor count [5] was 0 of 10.
In the case of `N#Cc1ccc(/C=C/C(=O)c2ccccc2)cc1`, the survivor count [7] is reported as 10 of 10.
In the case of `Cc1ccc(N2C(=O)CC(Sc3ccccc3N)C2=O)cc1` (stereo unspecified), the survivor count [8] is reported as 10 of 10 and the survivor count [6] is reported as 7 of 10.
In the case of `NNC(=O)c1ccc(Cl)cc1Cl`, the survivor count [8] is reported as 10 of 10 and the survivor count [9] is reported as 6 of 10.
For `Cc1cc2oc(=O)c3c(c2c(O)c1CN1CCOCC1)CCCC3`, the survivor count (dose: 512.0 mg/kg/injection, schedule: Q01DX009 (ip), vehicle: Klucel (hydroxypropylcellulose) (HPC)) was 4 of 5.
In the case of `NNC(=O)c1ccncc1`, the survivor count [2] is reported as 6 of 10 and the survivor count (dose: 256.0 mg/kg/injection, schedule: Q01DX009 (ip), vehicle: saline) is reported as 1 of 10.
`CCN(CC)CCSC(=O)C(O)(c1ccccc1)C1CCCC1` (stereo unspecified) was tested, and the T/C (dose: 50.0 mg/kg/injection, schedule: Q01DX009 (ip), vehicle: saline) was 134 % of control and the T/C [1] was 127 % of control [5 of 6 alive].
For `O=P1(NCCCl)OCCCN1CCCl` (stereo unspecified), the T/C (dose: 50.0 mg/kg/injection, schedule: Q01DX009 (ip), vehicle: water) was 128 and 133 % of control, the T/C (dose: 50.0 mg/kg/injection, schedule: Q02DX009 (ip), vehicle: saline) was 126 and 133 % of control and the T/C [1] was 137 and 147 % of control. For the same compound, the survivor count [1] was 10 of 10, the survivor count (dose: 100.0 mg/kg/injection, schedule: Q01DX009 (ip), vehicle: water) was 10 of 10 and the T/C (dose: 100.0 mg/kg/injection, schedule: Q02DX009 (ip), vehicle: saline) was 126 and 133 % of control. For the same compound, the T/C (dose: 100.0 mg/kg/injection, schedule: Q02DX009 (ip), vehicle: water) was 143 % of control, the survivor count [2] was 9 of 10, 10 of 10, 6 of 6 and the survivor count (dose: 200.0 mg/kg/injection, schedule: Q01DX009 (ip), vehicle: water) was 10 of 10. For the same compound, the survivor count [3] was 3 of 10 and 4 of 10, the survivor count (dose: 400.0 mg/kg/injection, schedule: Q01DX009 (ip), vehicle: water) was 7 of 10 and 10 of 10 and the survivor count (dose: 400.0 mg/kg/injection, schedule: Q02DX009 (ip), vehicle: saline) was 8 of 10 and 10 of 10. The survivor count (dose: 400.0 mg/kg/injection, schedule: Q02DX009 (ip), vehicle: water) was 10 of 10.
With `CCCCCCCCCc1ccc(OC(=O)CCC)cc1` the survivor count [8] was 10 of 10, the survivor count [10] was 10 of 10 and the survivor count [6] was 10 of 10.
For `COc1cc2cc3cc4cc(OC)c(OC)cc4c(C)[n+]3cc2cc1OC` (tested in a mixture with another compound), the survivor count (dose: 40.0 mg/kg/injection, schedule: Q01DX009 (ip), vehicle: Klucel (hydroxypropylcellulose) (HPC)) was 10 of 10, the survivor count [11] was 9 of 10 and the survivor count (dose: 160.0 mg/kg/injection, schedule: Q01DX009 (ip), vehicle: Klucel (hydroxypropylcellulose) (HPC)) was 1 of 10.
For `CC[C@@]1(O)C(=O)OCc2c1cc1n(c2=O)Cc2cc3cc(O)ccc3nc2-1`, the survivor count (dose: 3.13 mg/kg/injection, schedule: Q01DX009 (ip), vehicle: other) was 8 of 10 and the survivor count (dose: 6.25 mg/kg/injection, schedule: Q01DX009 (ip), vehicle: other) was 6 of 10.
For `Cc1cc([NH-])c([NH-])cc1C.[Cl][Pt+2][Cl]`, the T/C (dose: 5.0 mg/kg/injection, schedule: Q01DX009 (ip), vehicle: saline with Tween-80) was 134 % of control and the survivor count (dose: 20.0 mg/kg/injection, schedule: Q01DX009 (ip), vehicle: saline with Tween-80) was 9 of 10.
`CNc1ncnc2c1cnn2C` was tested, and the survivor count [11] was 10 of 10.
For `CC1(C)C(C#N)C(=O)N=C(N)C1C(N)=O` (stereo unspecified), the survivor count [9] was 10 of 10.
For `O=c1[nH]cnc2nc(/N=N/SCCO)[nH]c12`, the survivor count [7] was 5 of 10.
For `CCCSc1ncnc2nc[nH]c12`, the survivor count [12] was 2 of 6, the survivor count [13] was 0 of 6 and the survivor count [14] was 0 of 6.
In the case of `N#CC(C#N)=C/C=C/c1cccc([N+](=O)[O-])c1`, the survivor count [15] is reported as 9 of 10 and the survivor count [8] is reported as 5 of 10.
With `CC(C)N1C(=O)C=C(c2ccc([N+](=O)[O-])cc2)C1=O` the survivor count [16] was 10 of 10 and the survivor count [5] was 10 of 10.
For `Cc1ccc(Cl)cc1NC(=O)Nc1ccccc1Cl`, the survivor count [16] was 10 of 10, the survivor count [4] was 10 of 10 and the survivor count [5] was 10 of 10. For the same compound, the survivor count [8] was 10 of 10, the survivor count [10] was 7 of 10 and 10 of 10 and the survivor count [6] was 6 of 10. For the same compound, the survivor count [7] was 7 of 10.
For `Nc1cc(S(N)(=O)=O)ccc1SSc1ccc(S(N)(=O)=O)cc1N`, the survivor count [14] was 5 of 6.
With `CCCCCCC(C)NCC(O)COc1cccc(C)c1` (stereo unspecified) the survivor count [15] was 9 of 10 and the survivor count [8] was 2 of 10.
For `CCCCC(=O)N(c1ccc(Nc2c3ccccc3nc3cc([N+](=O)[O-])ccc23)cc1)S(C)(=O)=O`, the T/C (dose: 7.5 mg/kg/injection, schedule: Q01DX009 (ip), vehicle: saline with Tween-80) was 141 % of control, the T/C (dose: 25.0 mg/kg/injection, schedule: Q01DX001 (ip), vehicle: saline with Tween-80) was 127 % of control and the survivor count (dose: 30.0 mg/kg/injection, schedule: Q01DX009 (ip), vehicle: saline with Tween-80) was 6 of 6. For the same compound, the T/C (dose: 50.0 mg/kg/injection, schedule: Q01DX001 (ip), vehicle: saline with Tween-80) was 144 % of control and the survivor count (dose: 100.0 mg/kg/injection, schedule: Q01DX001 (ip), vehicle: saline with Tween-80) was 4 of 6.
With `CN(C)NCCC#N` the T/C (dose: 150.0 mg/kg/injection, schedule: Q01DX009 (ip), vehicle: saline) was 145 % of control, the survivor count (dose: 169.0 mg/kg/injection, schedule: Q01DX009 (ip), vehicle: saline) was 10 of 10 and the survivor count (dose: 300.0 mg/kg/injection, schedule: Q01DX009 (ip), vehicle: saline) was 8 of 10. The survivor count (dose: 600.0 mg/kg/injection, schedule: Q01DX009 (ip), vehicle: saline) was 0 of 10.
`O=C(O)CNC(=O)C(Br)Cc1ccccc1` (stereo unspecified) was tested, and the survivor count [12] was 10 of 10 and the survivor count [13] was 10 of 10.
With `CCOC(=O)/N=[N+](\[O-])c1ccccc1` the survivor count (dose: 50.0 mg/kg/injection, schedule: Q01DX009 (ip), vehicle: saline with Tween-80) was 3 of 10.
In the case of `CCCCCCCCNc1cc2c3c(c1)CCCN3CCC2`, the survivor count (dose: 3.0 mg/kg/injection, schedule: Q01DX009 (ip), vehicle: Klucel (hydroxypropylcellulose) (HPC)) is reported as 10 of 10.

From PubChem BioAssay AID192 (DTP/NCI, 2004)
